Measured data: PubChem BioAssay AID1117269 (University of Michigan, 2014)
Purpose: 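Which kinase knockdowns increase BTR reporter light after TGF-beta stimulation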 (primary screen). System: human A549 lung cancer and 1833 breast cancer (MDA-MB-231-derived) cell lines carrying a stable BTR luciferase reporter. Reagents: siRNA pool against human genes. Timing: 72 h after transfection, then 1 h TGF-beta before the read. Challenge: TGF-beta 10 ng/mL added one hour before luciferin and read-out. Measurement: 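Live-cell BTR luciferase signal at 72 h after transfection and 1 h of TGF-beta at 10 ng/mL, fold versus scrambled siRNA, triplicate mean for each line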. Reading the numbers: fold over scrambled siRNA, A549 and fold over scrambled siRNA, 1833: higher = more reporter light, weaker TGF-beta receptor signalling. Call rule: 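Active if a hit in A549 or 1833; a line's hit exceeds an upper quartile-based cutoff on mean log fold values, applied per plate and across the whole screen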. Meaning of the calls: active = hit in at least one line; inactive = hit in neither line.
Here is one part, drawn at random, of 714 reagents. 49 of all reagents (6.9%) were called active. 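Active means a hit in at least one line; per-line hit columns show which; some siRNA pools appear more than once.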 A reagent listed more than once was tested more than once; the source does not tell the runs apart. Not given: the amount of reagent.

After knock-down of MAPK11 (mitogen-activated protein kinase 11) [SID56478748] the results were fold over scrambled siRNA, A549 = 1.12; fold over scrambled siRNA, 1833 = 1.64; hit in A549 = not a hit in A549; hit in 1833 = not a hit in 1833; inactive.
Silencing of MYLK2 (myosin light chain kinase 2) [SID56479029] gave: fold over scrambled siRNA, A549 = 0.69; fold over scrambled siRNA, 1833 = 1.33; hit in A549 = not a hit in A549; hit in 1833 = not a hit in 1833; inactive.
For IKBKE (inhibitor of nuclear factor kappa B kinase subunit epsilon) [SID56478721], the values are fold over scrambled siRNA, A549 = 0.672; fold over scrambled siRNA, 1833 = 1.44; hit in A549 = not a hit in A549; hit in 1833 = not a hit in 1833; inactive.
Against DGUOK (deoxyguanosine kinase) [SID152155858] the deposit lists fold over scrambled siRNA, A549 = 1.78; fold over scrambled siRNA, 1833 = 5.38; hit in A549 = not a hit in A549; hit in 1833 = not a hit in 1833; inactive.
Knock-down of PAPSS2 (3'-phosphoadenosine 5'-phosphosulfate synthase 2) [SID152148635] resulted in: fold over scrambled siRNA, A549 = 2.96; fold over scrambled siRNA, 1833 = 1.6; hit in A549 = not a hit in A549; hit in 1833 = not a hit in 1833; inactive.
Depletion of DGKI (diacylglycerol kinase iota) [SID56479093] came out at: fold over scrambled siRNA, A549 = 2.81; fold over scrambled siRNA, 1833 = 5.49; hit in A549 = not a hit in A549; hit in 1833 = not a hit in 1833; inactive.
For IPMK (inositol polyphosphate multikinase) [SID152147042] the deposit lists fold over scrambled siRNA, A549 = 1.86; fold over scrambled siRNA, 1833 = 10; hit in A549 = not a hit in A549; hit in 1833 = not a hit in 1833; inactive.
For MAP2K5 (mitogen-activated protein kinase kinase 5) [SID135620764], the values are fold over scrambled siRNA, A549 = 2.63; fold over scrambled siRNA, 1833 = 2.59; hit in A549 = not a hit in A549; hit in 1833 = not a hit in 1833; inactive.
Knock-down of PIK3C2G [SID152155956] resulted in: fold over scrambled siRNA, A549 = 2.68; fold over scrambled siRNA, 1833 = 1.67; hit in A549 = not a hit in A549; hit in 1833 = not a hit in 1833; inactive.
INSRR (insulin receptor related receptor) [SID56479015] scored fold over scrambled siRNA, A549 = 1.69; fold over scrambled siRNA, 1833 = 2.7; hit in A549 = not a hit in A549; hit in 1833 = not a hit in 1833; inactive.
After knock-down of RPS6KB1 (ribosomal protein S6 kinase B1) [SID152147142], the screen gave fold over scrambled siRNA, A549 = 5.58; fold over scrambled siRNA, 1833 = 22.3; hit in A549 = hit in A549; hit in 1833 = hit in 1833; active.
For PIK3R2 (phosphoinositide-3-kinase regulatory subunit 2) [SID135620607], the values are fold over scrambled siRNA, A549 = 0.679; fold over scrambled siRNA, 1833 = 1.2; hit in A549 = not a hit in A549; hit in 1833 = not a hit in 1833; inactive.

Targets above whose target name starts with M or m (3):
MAPK11 (mitogen-activated protein kinase 11) [SID56478748] → fold over scrambled siRNA, A549: 1.12; fold over scrambled siRNA, 1833: 1.64; hit in A549: not a hit in A549; hit in 1833: not a hit in 1833; Outcome: inactive
MYLK2 (myosin light chain kinase 2) [SID56479029] → fold over scrambled siRNA, A549: 0.69; fold over scrambled siRNA, 1833: 1.33; hit in A549: not a hit in A549; hit in 1833: not a hit in 1833; Outcome: inactive
MAP2K5 (mitogen-activated protein kinase kinase 5) [SID135620764] → fold over scrambled siRNA, A549: 2.63; fold over scrambled siRNA, 1833: 2.59; hit in A549: not a hit in A549; hit in 1833: not a hit in 1833; Outcome: inactive

More records follow:
Silencing of MAP2K4 (mitogen-activated protein kinase kinase 4) [SID56478690] gave: fold over scrambled siRNA, A549 = 1.78; fold over scrambled siRNA, 1833 = 2.18; hit in A549 = not a hit in A549; hit in 1833 = not a hit in 1833; inactive.
Against EIF2AK4 (eukaryotic translation initiation factor 2 alpha kinase 4) [SID152146907], the entry reads fold over scrambled siRNA, A549 = 4.09; fold over scrambled siRNA, 1833 = 4.67; hit in A549 = not a hit in A549; hit in 1833 = not a hit in 1833; inactive.
MARK4 (microtubule affinity regulating kinase 4) [SID56479022] showed fold over scrambled siRNA, A549 = 1.96; fold over scrambled siRNA, 1833 = 2.85; hit in A549 = not a hit in A549; hit in 1833 = not a hit in 1833; inactive.
For CSNK2A2 (casein kinase 2 alpha 2) [SID56478861] the deposit lists fold over scrambled siRNA, A549 = 0.525; fold over scrambled siRNA, 1833 = 3.3; hit in A549 = not a hit in A549; hit in 1833 = not a hit in 1833; inactive.
Silencing of AURKA (aurora kinase A) [SID135620696] gave: fold over scrambled siRNA, A549 = 0.433; fold over scrambled siRNA, 1833 = 3.33; hit in A549 = not a hit in A549; hit in 1833 = not a hit in 1833; inactive.
With knock-down of CHEK2 (checkpoint kinase 2) [SID152153325], the screen gave fold over scrambled siRNA, A549 = 3.39; fold over scrambled siRNA, 1833 = 2.07; hit in A549 = not a hit in A549; hit in 1833 = not a hit in 1833; inactive.
PRPS1L1 (phosphoribosyl pyrophosphate synthetase 1 like 1) [SID56479159] scored fold over scrambled siRNA, A549 = 1.57; fold over scrambled siRNA, 1833 = 1.44; hit in A549 = not a hit in A549; hit in 1833 = not a hit in 1833; inactive.
For MAP3K2 (mitogen-activated protein kinase kinase kinase 2) [SID135620706] the deposit lists fold over scrambled siRNA, A549 = 1.95; fold over scrambled siRNA, 1833 = 4.57; hit in A549 = not a hit in A549; hit in 1833 = not a hit in 1833; inactive.
With knock-down of NUCKS1 [SID152150801] the results were fold over scrambled siRNA, A549 = 2.08; fold over scrambled siRNA, 1833 = 7.54; hit in A549 = not a hit in A549; hit in 1833 = not a hit in 1833; inactive.
With knock-down of CAMKK1 (calcium/calmodulin dependent protein kinase kinase 1) [SID135620905], the screen gave fold over scrambled siRNA, A549 = 1.1; fold over scrambled siRNA, 1833 = 8.73; hit in A549 = not a hit in A549; hit in 1833 = not a hit in 1833; inactive.
CAMKK1 (calcium/calmodulin dependent protein kinase kinase 1) [SID135620905] scored fold over scrambled siRNA, A549 = 1.52; fold over scrambled siRNA, 1833 = 5.73; hit in A549 = not a hit in A549; hit in 1833 = not a hit in 1833; inactive.
TEK (TEK receptor tyrosine kinase) [SID152152932] showed fold over scrambled siRNA, A549 = 2.81; fold over scrambled siRNA, 1833 = 4.73; hit in A549 = not a hit in A549; hit in 1833 = not a hit in 1833; inactive.
Silencing of PRKAG1 (protein kinase AMP-activated non-catalytic subunit gamma 1) [SID135621699] came out at: fold over scrambled siRNA, A549 = 6.93; fold over scrambled siRNA, 1833 = 8.29; hit in A549 = hit in A549; hit in 1833 = not a hit in 1833; active.
Knock-down of DSTYK (dual serine/threonine and tyrosine protein kinase) [SID152147164] gave: fold over scrambled siRNA, A549 = 1.33; fold over scrambled siRNA, 1833 = 1.73; hit in A549 = not a hit in A549; hit in 1833 = not a hit in 1833; inactive.
Silencing of POMK (protein O-mannose kinase) [SID56479008] gave: fold over scrambled siRNA, A549 = 1.79; fold over scrambled siRNA, 1833 = 2.33; hit in A549 = not a hit in A549; hit in 1833 = not a hit in 1833; inactive.
With knock-down of POMK (protein O-mannose kinase) [SID56479008], the screen gave fold over scrambled siRNA, A549 = 1.03; fold over scrambled siRNA, 1833 = 3.53; hit in A549 = not a hit in A549; hit in 1833 = not a hit in 1833; inactive.
